The supplement of paper PMC12873370
Values joined by “and” are separate entries in the source; they are usually repeats but may differ in a detail not shown here. Equal entries are not always repeated. The list shows a part of the results. Single values are uncertain, as repeats are few or missing.

test system: MEPP (mouse ovarian epithelium Trp53/Pten KO); experiment: cell viability relative to untreated (fraction); higher = less growth inhibition; details: 5 µM; 3 days

| SMILES | cell viability |
| --- | --- |
| COc1cccc(OC)c1C(=O)O | 1.11 |
| CC(=O)OCC[N+](C)(C)C | 0.81 and 1.2 |
| O=C(O)CNC(=O)Cc1ccccc1 | 0.947 |
| NC(=O)[C@@H]1CC[C@@H]2CN1C(=O)N2OS(=O)(=O)O | 0.719 |
| CS(=O)(=O)CCNCc1ccc(-c2ccc3ncnc(Nc4ccc(OCc5cccc(F)c5)c(Cl)c4)c3c2)o1 | 1.07 |
| C=CC(=O)Nc1cc2c(Nc3ccc(F)c(Cl)c3)ncnc2cc1OCCCN1CCOCC1 | 0.908 |
| O=C[C@@H](O)[C@H](O)[C@@H](O)CO | 0.81 |
| O=C(O)C(O)c1ccccc1 (stereo not given) | 1.15 |
| N[C@@H](CCC(=O)O)C(=O)[O-].[Na+] | 0.883 |
| O=C(O)/C=C\C(=O)O | 1.08 |
| C/C=C/c1ccc(OC)cc1 | 0.979 |
| C[n+]1cccc(C(=O)[O-])c1 | 1.32 and 1.18 |
| OC[C@@H](O)[C@@H](O)CO | 1.08 |
| CC1=C2C(=O)O[C@@H](c3ccoc3)[C@]2(C)CCC1 | 1.32 |
| O=C(O)C(O)O | 0.814 |
| C[C@H]1[C@H](NC(=O)/C(=N\OC(C)(C)C(=O)O)c2csc(N)n2)C(=O)N1S(=O)(=O)O | 0.98 |
| CC1OC(OC2C(OC3CCC4(C)C(CCC5(C)C4CC=C4C6CC(C)(C)CCC6(C(=O)OC6OC(COC7OC(CO)C(O)C(O)C7O)C(O)C(O)C6O)CCC45C)C3(C)CO)OCC(O)C2O)C(O)C(O)C1O (stereo not given) | 1.03 |
| CC[C@H](C)[C@H](N)C1=N[C@H](C(=O)N[C@@H](CC(C)C)C(=O)N[C@H](CCC(=O)[O-])C(=O)N[C@H](C(=O)N[C@H]2CCCCNC(=O)[C@H](CC(N)=O)NC(=O)[C@@H](CC(=O)[O-])NC(=O)[C@H](Cc3cnc[nH]3)NC(=O)[C@@H](Cc3ccccc3)NC(=O)[C@H]([C@@H](C)CC)NC(=O)[C@@H](CCCN)NC2=O)[C@@H](C)CC)CS1.[Zn+2] | 0.98 |
| COc1c(C)c2c(c(O)c1C/C=C(\C)CCC(=O)OCCN1CCOCC1)C(=O)OC2 | 0.564 |
| COc1cc(O)cc(O)c1C(=O)/C=C/c1ccccc1 | 0.864 |

Reformatted as tab-separated lines: entries from further up.
SMILES	cell viability
COc1cccc(OC)c1C(=O)O	1.11
O=C(O)CNC(=O)Cc1ccccc1	0.947
NC(=O)[C@@H]1CC[C@@H]2CN1C(=O)N2OS(=O)(=O)O	0.719
O=C[C@@H](O)[C@H](O)[C@@H](O)CO	0.81
N[C@@H](CCC(=O)O)C(=O)[O-].[Na+]	0.883
O=C(O)/C=C\C(=O)O	1.08
C/C=C/c1ccc(OC)cc1	0.979
OC[C@@H](O)[C@@H](O)CO	1.08
CC[C@H](C)[C@H](N)C1=N[C@H](C(=O)N[C@@H](CC(C)C)C(=O)N[C@H](CCC(=O)[O-])C(=O)N[C@H](C(=O)N[C@H]2CCCCNC(=O)[C@H](CC(N)=O)NC(=O)[C@@H](CC(=O)[O-])NC(=O)[C@H](Cc3cnc[nH]3)NC(=O)[C@@H](Cc3ccccc3)NC(=O)[C@H]([C@@H](C)CC)NC(=O)[C@@H](CCCN)NC2=O)[C@@H](C)CC)CS1.[Zn+2]	0.98
COc1c(C)c2c(c(O)c1C/C=C(\C)CCC(=O)OCCN1CCOCC1)C(=O)OC2	0.564
COc1cc(O)cc(O)c1C(=O)/C=C/c1ccccc1	0.864

Following part:

| SMILES | cell viability |
| --- | --- |
| O=c1ccn([C@@H]2O[C@H](COP(=O)(O)OP(=O)(O)O)[C@@H](O)[C@H]2O)c(=O)[nH]1 | 0.799 |
| Oc1cc(O)c2cc(O)c(-c3ccc(O)c(O)c3)[o+]c2c1 | 1.08 |
| CC1(C)S[C@@H]2[C@H](NC(=O)[C@H](NC(=O)N3CCN(S(C)(=O)=O)C3=O)c3ccccc3)C(=O)N2[C@H]1C(=O)O | 1.12 |
| COc1cc2ncnc(Nc3ccc(F)c(Cl)c3)c2cc1OCCCN1CCOCC1 | 1.02 |
| COc1cc2ccc(=O)oc2cc1O | 1.19 |
| COC(=O)C1=CO[C@@H](O[C@@H]2O[C@H](CO)[C@@H](O)[C@H](O)[C@H]2O)[C@@H]2[C@H](C)O[C@@H](O)C[C@H]12 | 1.12 |
| Oc1c(Cl)cc(Cl)c2cccnc12 | 0.949 |
| CCCCCCCC(=O)O | 0.996 |
| CC[C@@]1(O)C(=O)OCc2c1cc1n(c2=O)Cc2cc3cc(O)ccc3nc2-1 | 0.942 and 0.551 |
| COc1ccc(Cc2cnc(N)nc2N)cc1OC | 1.18 |
| O=C(O)c1cn(-c2ccc(F)cc2)c2cc(N3CCNCC3)c(F)cc2c1=O | 1.01 |
| CO/N=C(\C(=O)N[C@@H]1C(=O)N2C(C(=O)OC(C)OC(C)=O)=C(COC(N)=O)CS[C@H]12)c1ccco1 (stereo not given in full) | 1.16 |
| COc1cc([C@@H]2c3cc4c(cc3[C@@H](O[C@@H]3O[C@@H]5CO[C@@H](C)O[C@H]5[C@H](O)[C@H]3O)[C@H]3COC(=O)[C@H]23)OCO4)cc(OC)c1O | 0.851 |
| CC[C@H]1OC(=O)C[C@@H](O)[C@H](C)[C@@H](O[C@@H]2O[C@H](C)[C@@H](O[C@H]3C[C@@](C)(O)[C@@H](O)[C@H](C)O3)[C@H](N(C)C)[C@H]2O)[C@@H](CC=O)C[C@@H](C)C(=O)/C=C/C(C)=C/[C@@H]1CO[C@@H]1O[C@H](C)[C@@H](O)[C@@H](OC)[C@H]1OC | 0.897 |
| C[n+]1cccc(C(N)=O)c1 | 1.04 |
| CCCCCCCCCCCCC(=O)O | 1.1 |
| COc1ccc(CC(=O)O)cc1OC | 1.04 |
| C[C@@H]1O[C@@H](OC[C@H]2O[C@@H](Oc3cc(O)c4c(c3)O[C@H](c3ccc(O)c(O)c3)CC4=O)[C@H](O)[C@@H](O)[C@@H]2O)[C@H](O)[C@H](O)[C@H]1O | 1.18 |
| C=C[C@@]1(C)CC(=O)[C@]2(O)[C@@]3(C)[C@@H](O)CCC(C)(C)[C@@H]3[C@H](O)[C@H](OC(C)=O)[C@@]2(C)O1 | 1.01 |
| O=c1cccc[nH]1 | 0.987 |
